Reference: PMC3334620
The direction of at least one scale is not stated here. Where a protein sequence is shown, tags need not be part of it.

What follows are sequences tested against T1, Vhr2 (Saccharomyces cerevisiae) (UniProt P40041) (assay: binding assay). Conditions: 200 nM, protein translated in vitro, protein details: N-terminal GST (pDEST15), kept, only the motif is given.
T1 sequence (looked up): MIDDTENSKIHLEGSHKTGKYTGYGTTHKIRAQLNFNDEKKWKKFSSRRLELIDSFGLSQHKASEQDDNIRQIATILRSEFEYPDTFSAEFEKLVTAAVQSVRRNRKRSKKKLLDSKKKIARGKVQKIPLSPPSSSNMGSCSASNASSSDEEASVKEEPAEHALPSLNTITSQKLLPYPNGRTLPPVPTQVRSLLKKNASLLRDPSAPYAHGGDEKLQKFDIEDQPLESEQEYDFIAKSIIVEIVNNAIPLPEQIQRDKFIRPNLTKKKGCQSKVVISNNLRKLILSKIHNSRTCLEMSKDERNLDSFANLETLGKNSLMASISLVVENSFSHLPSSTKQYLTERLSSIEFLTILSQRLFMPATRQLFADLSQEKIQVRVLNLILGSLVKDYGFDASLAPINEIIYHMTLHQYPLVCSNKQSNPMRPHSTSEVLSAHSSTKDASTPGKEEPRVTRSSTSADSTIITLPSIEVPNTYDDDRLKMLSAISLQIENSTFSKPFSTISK

Q: “CCGTGTAA (double strand) [8-mer CCGTGTAA]” was tested. Which binding signal (PBM E-score (-0.5 to 0.5)) did it give?
A: Its binding signal (PBM E-score (-0.5 to 0.5)) is -0.034.

Q: For “GATAGTTA (double strand) [8-mer GATAGTTA]”, which binding signal (PBM E-score (-0.5 to 0.5)) is on record?
A: Its binding signal (PBM E-score (-0.5 to 0.5)) is -0.051.

Q: Which binding signal (PBM E-score (-0.5 to 0.5)) does the source give for “CCGGACGA (double strand) [8-mer CCGGACGA]” here?
A: Its binding signal (PBM E-score (-0.5 to 0.5)) is 0.

Q: Which binding signal (PBM E-score (-0.5 to 0.5)) does the source give for “CCGGAAAC (double strand) [8-mer CCGGAAAC]” here?
A: Its binding signal (PBM E-score (-0.5 to 0.5)) is -0.084.

Q: With “ATAGACCG (double strand) [8-mer ATAGACCG]” as the sequence, how does the binding signal (PBM E-score (-0.5 to 0.5)) read?
A: The binding signal (PBM E-score (-0.5 to 0.5)) was -0.067.

Q: With “GATACTTA (double strand) [8-mer GATACTTA]” as the sequence, how does the binding signal (PBM E-score (-0.5 to 0.5)) read?
A: Its binding signal (PBM E-score (-0.5 to 0.5)) is -0.017.
